Measurements from article PMC11995443.
No constants are given. Whether binding was seen depends on the method and setting. For some assays here: In cells and extracts the contact can be indirect. Some binding calls cover weakened binding; strength is not graded here. For some assays here: Tags and fused reporters may be left off the sequences shown.

The chains behind the UniProt entries cited, without tags or fusion partners. Residues count along the entry.
UniProt P43297, residues 137-352: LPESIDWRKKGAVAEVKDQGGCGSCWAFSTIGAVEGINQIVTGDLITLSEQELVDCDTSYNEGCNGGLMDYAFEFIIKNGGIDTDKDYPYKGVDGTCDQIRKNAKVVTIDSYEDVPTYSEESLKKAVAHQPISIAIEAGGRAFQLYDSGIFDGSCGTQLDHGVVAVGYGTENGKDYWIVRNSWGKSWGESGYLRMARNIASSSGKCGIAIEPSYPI

What was measured:
OTU2-nLUC (A. thaliana) = target: T1, OTU2-nLUC (A. thaliana) (UniProt Q9LPT6); test: split reporter; split-LUC: OTU2-nLUC co-expressed with RD21A-cLUC or vector control in N. benthamiana leaves; luciferin infiltrated 48 h after infiltration, luminescence imaged
T1 sequence: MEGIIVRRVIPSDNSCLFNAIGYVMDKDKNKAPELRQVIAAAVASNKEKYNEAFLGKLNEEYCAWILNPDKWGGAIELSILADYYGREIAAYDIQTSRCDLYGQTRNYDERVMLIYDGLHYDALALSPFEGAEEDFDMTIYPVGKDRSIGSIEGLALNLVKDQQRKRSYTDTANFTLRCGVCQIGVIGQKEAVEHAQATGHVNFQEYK

[1] = target: T2, ovarian tumor domain (OTU)-containing deubiquitilating enzyme 2 (OTU2), bait in pGBKT7 (A. thaliana) (UniProt Q9LPT6); test: two-hybrid; OTU2 (or its truncated derivatives) in pGBKT7 as bait, candidates in pGADT7 as prey; Y2H golden yeast cells; SD-Trp-Leu-His-Ade with X-alpha-Gal and aureobasidin A
T2 sequence: T1 sequence

binding (OTU2-nLUC (A. thaliana))	binding [1]	Substance
binds	–	mature RD21A (mRD21A) fused to cLUC (from UniProt P43297 137-352) (domain or fragment)
–	binds	mature RD21A (mRD21A), prey in pGADT7 (from UniProt P43297 137-352) (domain or fragment)
